This assay has as its target T1, SCRM-TbID-Venus (SCRMp::SCRM-TbID-Venus) (Arabidopsis thaliana) (UniProt Q9LSE2).
T1 sequence: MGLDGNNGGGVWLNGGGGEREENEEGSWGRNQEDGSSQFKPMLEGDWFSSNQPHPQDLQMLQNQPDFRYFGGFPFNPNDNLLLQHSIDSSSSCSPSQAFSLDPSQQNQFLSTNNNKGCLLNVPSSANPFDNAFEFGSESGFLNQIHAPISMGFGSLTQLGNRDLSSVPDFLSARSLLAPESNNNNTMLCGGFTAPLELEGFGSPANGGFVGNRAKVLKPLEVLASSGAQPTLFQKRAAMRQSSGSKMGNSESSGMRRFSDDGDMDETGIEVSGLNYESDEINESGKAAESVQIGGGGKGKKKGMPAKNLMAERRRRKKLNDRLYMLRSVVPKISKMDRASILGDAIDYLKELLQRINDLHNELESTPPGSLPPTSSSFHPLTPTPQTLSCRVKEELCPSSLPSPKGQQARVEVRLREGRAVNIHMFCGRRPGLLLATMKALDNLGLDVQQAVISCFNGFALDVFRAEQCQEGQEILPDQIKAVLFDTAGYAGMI
As to the kind of experiment: proximity labelling; TurboID fused to SCRM (SCRMp::SCRM-TbID-Venus in ice1-2), 5 day old seedlings in 50 uM biotin, streptavidin bead pulldown, on-bead trypsin digest, LC-MS with label-free quantification; enrichment against WT, SPCHp and FAMAp driven nuclear TbID and untreated SCRM-TbID.

Protein sequences, listed by entry. Tags and fused reporters are not part of them. Lines headed by an entry give the natural chain unless they say otherwise; changes in a name come on top.
UniProt Q9LM88: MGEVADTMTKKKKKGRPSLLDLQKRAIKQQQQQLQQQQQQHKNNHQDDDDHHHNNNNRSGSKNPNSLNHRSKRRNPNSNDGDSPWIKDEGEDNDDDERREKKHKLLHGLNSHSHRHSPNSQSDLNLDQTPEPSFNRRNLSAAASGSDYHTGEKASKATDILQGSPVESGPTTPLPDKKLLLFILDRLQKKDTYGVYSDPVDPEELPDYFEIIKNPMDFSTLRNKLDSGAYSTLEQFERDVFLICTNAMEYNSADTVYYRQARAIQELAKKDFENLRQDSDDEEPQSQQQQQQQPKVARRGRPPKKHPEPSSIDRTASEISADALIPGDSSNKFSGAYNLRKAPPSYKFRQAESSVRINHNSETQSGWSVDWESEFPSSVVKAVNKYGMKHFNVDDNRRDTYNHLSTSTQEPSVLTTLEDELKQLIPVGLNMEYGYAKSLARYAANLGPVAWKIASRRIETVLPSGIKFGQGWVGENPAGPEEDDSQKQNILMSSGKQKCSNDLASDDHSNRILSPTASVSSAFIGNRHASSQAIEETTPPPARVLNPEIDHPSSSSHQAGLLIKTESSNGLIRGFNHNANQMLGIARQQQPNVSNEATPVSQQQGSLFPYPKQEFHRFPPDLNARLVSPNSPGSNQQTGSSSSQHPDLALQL
UniProt Q9LE42: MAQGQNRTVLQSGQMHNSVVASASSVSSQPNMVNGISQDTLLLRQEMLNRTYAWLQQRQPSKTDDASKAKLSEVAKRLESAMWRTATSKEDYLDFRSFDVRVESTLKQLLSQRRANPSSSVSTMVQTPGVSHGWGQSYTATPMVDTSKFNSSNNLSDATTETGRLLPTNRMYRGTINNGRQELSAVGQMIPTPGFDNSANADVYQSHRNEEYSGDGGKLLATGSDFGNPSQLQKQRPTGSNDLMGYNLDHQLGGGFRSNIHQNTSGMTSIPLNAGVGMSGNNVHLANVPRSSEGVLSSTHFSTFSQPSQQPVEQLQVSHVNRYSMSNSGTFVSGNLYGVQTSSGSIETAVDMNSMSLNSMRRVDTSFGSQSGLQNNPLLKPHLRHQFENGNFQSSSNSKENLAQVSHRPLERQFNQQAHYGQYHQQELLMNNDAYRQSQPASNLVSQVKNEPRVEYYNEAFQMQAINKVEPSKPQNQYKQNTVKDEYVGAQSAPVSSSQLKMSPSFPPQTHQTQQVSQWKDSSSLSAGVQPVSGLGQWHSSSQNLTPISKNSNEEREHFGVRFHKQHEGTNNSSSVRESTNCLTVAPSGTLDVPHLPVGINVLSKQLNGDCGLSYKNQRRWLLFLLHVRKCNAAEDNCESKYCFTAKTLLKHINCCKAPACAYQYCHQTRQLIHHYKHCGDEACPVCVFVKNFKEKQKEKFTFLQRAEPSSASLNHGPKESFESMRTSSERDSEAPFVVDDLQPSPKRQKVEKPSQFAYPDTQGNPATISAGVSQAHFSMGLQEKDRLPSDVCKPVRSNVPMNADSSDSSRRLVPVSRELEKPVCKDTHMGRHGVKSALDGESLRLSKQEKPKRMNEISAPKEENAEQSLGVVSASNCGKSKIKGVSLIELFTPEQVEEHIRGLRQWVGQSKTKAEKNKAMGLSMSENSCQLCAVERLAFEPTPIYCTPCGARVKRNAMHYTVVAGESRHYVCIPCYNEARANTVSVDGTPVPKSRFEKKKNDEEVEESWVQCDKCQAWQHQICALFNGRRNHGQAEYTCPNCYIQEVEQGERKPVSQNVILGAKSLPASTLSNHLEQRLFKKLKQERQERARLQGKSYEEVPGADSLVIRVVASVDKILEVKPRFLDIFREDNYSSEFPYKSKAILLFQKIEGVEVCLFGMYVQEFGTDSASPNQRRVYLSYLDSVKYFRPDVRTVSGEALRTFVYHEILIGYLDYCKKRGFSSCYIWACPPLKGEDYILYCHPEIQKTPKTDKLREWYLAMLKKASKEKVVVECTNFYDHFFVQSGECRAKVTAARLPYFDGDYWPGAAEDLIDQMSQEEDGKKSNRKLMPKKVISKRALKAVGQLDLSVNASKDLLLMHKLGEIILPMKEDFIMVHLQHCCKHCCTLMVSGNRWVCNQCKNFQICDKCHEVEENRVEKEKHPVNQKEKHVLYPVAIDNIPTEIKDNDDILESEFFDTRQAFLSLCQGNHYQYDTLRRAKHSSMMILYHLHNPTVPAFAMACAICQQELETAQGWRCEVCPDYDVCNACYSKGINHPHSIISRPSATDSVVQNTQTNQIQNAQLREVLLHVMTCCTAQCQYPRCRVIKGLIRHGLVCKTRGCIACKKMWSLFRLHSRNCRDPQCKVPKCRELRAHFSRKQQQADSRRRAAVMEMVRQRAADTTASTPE
UniProt Q9SD86: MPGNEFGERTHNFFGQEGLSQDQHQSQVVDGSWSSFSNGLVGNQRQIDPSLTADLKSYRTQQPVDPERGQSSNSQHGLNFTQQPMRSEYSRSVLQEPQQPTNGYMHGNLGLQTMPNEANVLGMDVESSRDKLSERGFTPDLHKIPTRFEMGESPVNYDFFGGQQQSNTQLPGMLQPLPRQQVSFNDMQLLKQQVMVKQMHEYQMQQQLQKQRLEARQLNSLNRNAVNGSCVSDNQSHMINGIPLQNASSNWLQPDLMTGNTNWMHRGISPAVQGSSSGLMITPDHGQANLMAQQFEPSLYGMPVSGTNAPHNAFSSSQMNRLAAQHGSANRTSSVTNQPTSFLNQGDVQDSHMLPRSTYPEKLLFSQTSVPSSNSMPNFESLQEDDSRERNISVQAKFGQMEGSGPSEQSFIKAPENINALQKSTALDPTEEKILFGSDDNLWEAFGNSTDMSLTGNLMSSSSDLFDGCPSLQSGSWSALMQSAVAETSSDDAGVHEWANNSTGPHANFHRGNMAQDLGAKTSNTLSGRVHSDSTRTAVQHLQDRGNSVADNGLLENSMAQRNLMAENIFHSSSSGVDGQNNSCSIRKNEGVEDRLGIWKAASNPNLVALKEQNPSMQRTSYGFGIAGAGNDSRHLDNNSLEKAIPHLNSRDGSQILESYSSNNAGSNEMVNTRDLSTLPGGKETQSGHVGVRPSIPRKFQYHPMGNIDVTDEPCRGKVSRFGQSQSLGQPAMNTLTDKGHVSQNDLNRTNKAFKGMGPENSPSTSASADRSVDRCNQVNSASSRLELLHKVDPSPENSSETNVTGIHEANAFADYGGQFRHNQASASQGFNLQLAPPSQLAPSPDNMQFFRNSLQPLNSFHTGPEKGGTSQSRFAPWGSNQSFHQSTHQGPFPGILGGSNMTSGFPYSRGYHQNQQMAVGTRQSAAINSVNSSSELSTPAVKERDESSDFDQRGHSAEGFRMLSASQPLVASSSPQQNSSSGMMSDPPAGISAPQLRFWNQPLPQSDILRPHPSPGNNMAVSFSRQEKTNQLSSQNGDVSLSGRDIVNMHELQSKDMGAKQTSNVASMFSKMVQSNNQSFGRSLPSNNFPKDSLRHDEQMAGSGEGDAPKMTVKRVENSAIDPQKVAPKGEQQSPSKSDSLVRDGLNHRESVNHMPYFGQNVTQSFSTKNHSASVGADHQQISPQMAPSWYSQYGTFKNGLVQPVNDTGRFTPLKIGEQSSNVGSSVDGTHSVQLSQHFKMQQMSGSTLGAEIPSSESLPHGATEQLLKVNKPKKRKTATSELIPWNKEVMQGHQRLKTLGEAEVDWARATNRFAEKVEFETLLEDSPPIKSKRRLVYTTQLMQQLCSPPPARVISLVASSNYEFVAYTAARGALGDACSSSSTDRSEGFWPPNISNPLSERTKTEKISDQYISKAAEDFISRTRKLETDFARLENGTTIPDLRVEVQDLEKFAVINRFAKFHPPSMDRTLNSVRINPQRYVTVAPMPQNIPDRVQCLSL
UniProt Q9LF51: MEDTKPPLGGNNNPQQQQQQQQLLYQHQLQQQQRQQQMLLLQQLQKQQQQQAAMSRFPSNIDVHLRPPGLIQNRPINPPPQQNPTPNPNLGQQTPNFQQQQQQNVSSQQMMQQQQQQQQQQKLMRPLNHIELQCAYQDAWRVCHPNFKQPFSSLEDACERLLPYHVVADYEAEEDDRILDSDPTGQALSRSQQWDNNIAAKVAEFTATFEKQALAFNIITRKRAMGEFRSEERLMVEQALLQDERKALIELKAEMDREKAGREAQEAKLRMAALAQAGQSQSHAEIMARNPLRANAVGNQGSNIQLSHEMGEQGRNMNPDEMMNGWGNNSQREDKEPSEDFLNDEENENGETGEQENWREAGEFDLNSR
UniProt Q9FMT4: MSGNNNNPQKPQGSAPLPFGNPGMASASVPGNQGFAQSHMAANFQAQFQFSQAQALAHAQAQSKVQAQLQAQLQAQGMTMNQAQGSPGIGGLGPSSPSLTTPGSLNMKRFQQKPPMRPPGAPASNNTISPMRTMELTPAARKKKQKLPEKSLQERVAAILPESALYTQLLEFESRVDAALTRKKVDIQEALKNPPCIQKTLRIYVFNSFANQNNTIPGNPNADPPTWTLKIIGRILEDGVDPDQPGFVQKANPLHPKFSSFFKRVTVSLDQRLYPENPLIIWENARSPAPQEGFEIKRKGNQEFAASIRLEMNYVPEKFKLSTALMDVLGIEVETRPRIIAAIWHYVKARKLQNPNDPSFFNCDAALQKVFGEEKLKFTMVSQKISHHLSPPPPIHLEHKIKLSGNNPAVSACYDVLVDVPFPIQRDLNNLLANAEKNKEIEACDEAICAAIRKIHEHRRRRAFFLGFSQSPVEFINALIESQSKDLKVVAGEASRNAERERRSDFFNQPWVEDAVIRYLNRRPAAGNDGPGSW

Results are given in words; binding and its absence hold for the method and conditions named. Binding seen in cells or lysates may run through a third protein. A yes stands for co-enrichment or nearness to the bait. Other partners may have been found.

On to BRD1 (endogenous) (from UniProt Q9LM88), for which the binding entry is “binds”.
In the case of SYS1 (endogenous) it was “binds”.
As for “BRAHMA (BRM) (endogenous) (from UniProt Q6EVK6 1-2193) (enzyme)”, the entry is “binds”; as for “HAC5 (endogenous) (from UniProt Q9LE42 1-1670) (enzyme)”, “binds”.
In the case of SYS3 (endogenous) (from UniProt Q9SD86) it was “binds”; in that of “BRIP2 (endogenous) (from UniProt Q9LF51)”, “binds”; in that of “TRA1a (endogenous) (from UniProt F4IPJ1)”, “binds”.
Regarding “SWP73B (endogenous) (from UniProt Q9FMT4)”, the binding result is reported as “binds”.

B1: SWI3D (endogenous) (protein, UniProt Q8VY05 1-985)
chain: MEEKRRDSAGTLAFAGSSGDSPASEPMPAPRRRGGGLKRKANALGGSNFFSSAPSKRMLTREKAMLASFSPVHNGPLTRARQAPSIMPSAADGVKSEVLNVAVGADGEKPKEEEERNKAIREWEALEAKIEADFEAIRSRDSNVHVVPNHCGWFSWEKIHPLEERSLPSFFNGKLEGRTSEVYREIRNWIMGKFHSNPNIQIELKDLTELEVGDSEAKQEVMEFLDYWGLINFHPFPPTDTGSTASDHDDLGDKESLLNSLYRFQVDEACPPLVHKPRFTAQATPSGLFPDPMAADELLKQEGPAVEYHCNSCSADCSRKRYHCPKQADFDLCTECFNSGKFSSDMSSSDFILMEPAEAPGVGSGKWTDQETLLLLEALEIFKENWNEIAEHVATKTKAQCMLHFLQMPIEDAFLDQIDYKDPISKDTTDLAVSKDDNSVLKDAPEEAENKKRVDEDETMKEVPEPEDGNEEKVSQESSKPGDASEETNEMEAEQKTPKLETAIEERCKDEADENIALKALTEAFEDVGHSSTPEASFSFADLGNPVMGLAAFLVRLAGSDVATASARASIKSLHSNSGMLLATRHCYILEDPPDNKKDPTKSKSCSADAEGNDDNSHKDDQPEEKSKKAEEVSLNSDDREMPDTDTGKETQDSVSEEKQPGSRTENSTTKLDAVQEKRSSKPVTTDNSEKPVDIICPSQDKCSGKELQEPLKDGNKLSSENKDASQSTVSQSAADASQPEASRDVEMKDTLQSEKDPEDVVKTVGEKVQLAKEEGANDVLSTPDKSVSQQPIGSASAPENGTAGGNPNIEGKKEKDICEGTKDKYNIEKLKRAAISAISAAAVKAKNLAKQEEDQIRQLSGSLIEKQLHKLEAKLSIFNEAESLTMRVREQLERSRQRLYHERAQIIAARLGVPPSMSSKASLPTNRIAANFANVAQRPPMGMAFPRPPMPRPPGFPVPGSFVAATTMTGSSDPSPGSDNVSSV
Turning to B1, the binding entry is given as “binds”.

B2: LUH (endogenous) (protein, UniProt O48847 1-787)
chain: MAQSNWEADKMLDVYIYDYLVKKKLHNTAKSFMTEGKVSPDPVAIDAPGGFLFEWWSVFWDIFIARTNEKHSEAAAAYIEAQQGKAKEQQMQIQQLQMMRQAQMQRRDPNHPSLGGPMNAIGSEGMIGQSNASALAAKMYEERMKQPNPMNSETSQPHLDARMALLKSATNHHGQIVQGNHQGGVSAALQQIQSRTQQPTEIKTEVNLGTSPRQLPVDPSTVYGQGILQSKPGMGSAGLNPGVSGLPLKGWPLTGIEQMRPGLGGPQVQKSFLQNQSQFQLSPQQQQHQMLAQVQAQGNMTNSPMYGGDMDPRRFTGLPRGNLNPKDGQQNANDGSIGSPMQSSSSKHISMPPVQQSSSQQQDHLLSQQSQQNNRKRKGPSSSGPANSTGTGNTVGPSNSQPSTPSTHTPVDGVAIAGNMHHVNSMPKGPMMYGSDGIGGLASSANQLLQDDMDQFGDVGALEDNVESFLSQDDGDGGSLFGTLKRNSSVHTETSKPFSFNEVSCIRKSASKVICCSFSYDGKLLASAGHDKKVFIWNMETLQVESTPEEHAHIITDVRFRPNSTQLATSSFDKTIKIWDASDPGYFLRTISGHAAPVMSIDFHPKKTELLCSCDSNNDIRFWDINASCVRAVKGASTQVRFQPRTGQFLAAASENTVSIFDIENNNKRVNIFKGHSSNVHSVCWSPNGELVASVSEDAVKLWSLSSGDCIHELSNSGNKFHSVVFHPSYPDLLVIGGYQAIELWNTMENKCMTVAGHECVISALAQSPSTGVVASASHDKSVKIWK
Consider B2, for which the binding result is “binds”.

B3: SPT20 (endogenous) (protein, UniProt F4IDB2 1-1325)
chain: MGVSFKISKVGRKFRPKISTELATPDSPKAIVLSGKPKATDDSNIGDVSGFSKPSLPDISPDHEVSFILSLYPNGYSIGKTSEAMQQISFRDVPKVLHPYDRAAEGLLSAIEAGRLPGDILEDIPCKFVDGVVICEVHDYRKHTSSQVSPVINKLRLKMSLENVVKDIPSMSDNSWTYGDLMEVESRILKALQPELCLDPLPRLDRLSKNPLTAKLDLSLSTLRRKRLRQMAEVTVMSQNKIQGKKVCIDRLPESSERGNLPGHLIMQQTNNNQAIQNLGTNMLAGLRSQPLQDAPNSSLALVPPQQQRYMGIGSTRNTQDQGSNSVSVSGASPGGLDAMLPYGSDSMNPGTSFHRKRESQEGQMSSMPGLNKRTRVSHMGPDGVPQQQLGQRMDGLHGSDTNWKNTLLQHQDMLGRSIQYPNTSIQRFSPHQMEGVMNQEGGPMQFPASQQGGMKYTSKEEPFETGKIDGGTRNNIPGVGSDANDLDPRIQSRMPHNAFIRSNFPQTSWNVNPGQQIEKEPKKEEQFSRRISAQSPRLSAGGPPQSPLSSKSGEFSGGSMGTHYGAVAAAQKDKAVTSIPAIGATQSVGSSANEAMQQRQHQAQMAAKRRTNSLPKTQVISTVGSPVSVNTISVPVNARSPSVGPQTLGDHAILDRFSKIERVAARYQLNCKKHKVDEYSRRPRVYAKQPLTVCLSNLSNEEVFKDEDEALSKSIFGGSMNTYKTRVIHFGQMERVMQGSVPSFIPRNRTRLVMSEKAVDGTVAWYQGDVDEGDVFQAEDFLLALPNTHIADLLATQFKSLMAREGYMIEEHIMAKPNRGDTGPISSHPNSAGGYPRGYSANDMQQYGDAVAGQASGEASKHGNTGNTPNNSTQNILANARMVPPTNSQALQMSQGLLSGVSMPMQPQQLDPQQSALLSSHSQQKNQQSMFTQQQHPQMQRPSMILPTNPLSAINSMSQSSGMQPGGQMANKYSPLQLQMLQQQQQAAVQKKIMMGLGSGVGMGMGMGMGMGMGSMGNSIAGLGALGNQLNMAGRGMGGTGISSSMSVPGIGNMGQNPMNLNPASNLNAISQQLRSGALTPQQNALFTQIRMGMANRGGVMGAPQTGISGVSGTRQMHPSSAGLSMLDQNRANLQRAAAMGNMGPPKLMPGMMNLYMNQQQQQQQLQQQPQQQQLQHQQQLQQPMSQPSQQLAQSPQQQQQLQQHEQPQQAQQQQQATASPLQSVLSPPQVGSPSAGITQQQLQQSSPQQMSQRTPMSPQQVNQRTPMSPQISSGAMHPMSTSNLEGCPASPQLSSQTMGSVGSITNSPMELQGPKNNSAGNNS
For the molecule B3, the binding result is recorded as “binds”.

B4: SWI3C (endogenous) (protein, UniProt Q9XI07 1-807)
chain: MPASEDRRGKWKRKKRGGLSAARKPKQEEEDMEEEDEENNNNNNEEMDDVENADELQQNGGATPDPGLGIGEVVEDSGSRISDFPAVVKRVVIRPHASVMAVVAAERAGLIGETRGQGSLPALENISFGQLQALSTVPADSLDLERSDGSSSAYVISPPPIMDGEGVVKRFGDLVHVLPMHSDWFAPNTVDRLERQVVPQFFSGKSPNHTPESYMEFRNAIVSKYVENPEKTLTISDCQGLVDGVDIEDFARVFRFLDHWGIINYCATAQSHPGPLRDVSDVREDTNGEVNVPSAALTSIDSLIKFDKPNCRHKGGEVYSSLPSLDGDSPDLDIRIREHLCDSHCNHCSRPLPTVYFQSQKKGDILLCCDCFHHGRFVVGHSCLDFVRVDPMKFYGDQDGDNWTDQETLLLLEAVELYNENWVQIADHVGSKSKAQCILHFLRLPVEDGLLDNVEVSGVTNTENPTNGYDHKGTDSNGDLPGYSEQGSDTEIKLPFVKSPNPVMALVAFLASAVGPRVAASCAHESLSVLSEDDRMKSEGMQGKEASLLDGENQQQDGAHKTSSQNGAEAQTPLPQDKVMAAFRAGLSAAATKAKLFADHEEREIQRLSANIVNHQLKRMELKLKQFAEIETLLMKECEQVEKTRQRFSAERARMLSARFGSPGGISPQTNNLQGMSLSTGGNNINSLMHQQHQQQQASATSQPSIIPGFSNNPQVQAQMHFMARQQQQQQQQQQQQQQAFSFGPRLPLNAIQTNAGSTASPNVMFGNNQLNNPAAAGAASINQPSFSHPMVRSSTGSGSGSGLGLN
Take B4: the binding result is listed as “binds”.

B5: FAMA (endogenous) (protein, UniProt Q56YJ8 1-414)
chain: MDKDYSAPNFLGESSGGNDDNSSGMIDYMFNRNLQQQQKQSMPQQQQHQLSPSGFGATPFDKMNFSDVMQFADFGSKLALNQTRNQDDQETGIDPVYFLKFPVLNDKIEDHNQTQHLMPSHQTSQEGGECGGNIGNVFLEEKEDQDDDNDNNSVQLRFIGGEEEDRENKNVTKKEVKSKRKRARTSKTSEEVESQRMTHIAVERNRRKQMNEHLRVLRSLMPGSYVQRGDQASIIGGAIEFVRELEQLLQCLESQKRRRILGETGRDMTTTTTSSSSPITTVANQAQPLIITGNVTELEGGGGLREETAENKSCLADVEVKLLGFDAMIKILSRRRPGQLIKTIAALEDLHLSILHTNITTMEQTVLYSFNVKITSETRFTAEDIASSIQQIFSFIHANTNISGSSNLGNIVFT
Take B5: the binding result is “binds”.

B6: … (SPCH) (endogenous) (protein, UniProt Q700C7 1-364)
chain: MQEIIPDFLEECEFVDTSLAGDDLFAILESLEGAGEISPTAASTPKDGTTSSKELVKDQDYENSSPKRKKQRLETRKEEDEEEEDGDGEAEEDNKQDGQQKMSHVTVERNRRKQMNEHLTVLRSLMPCFYVKRGDQASIIGGVVEYISELQQVLQSLEAKKQRKTYAEVLSPRVVPSPRPSPPVLSPRKPPLSPRINHHQIHHHLLLPPISPRTPQPTSPYRAIPPQLPLIPQPPLRSYSSLASCSSLGDPPPYSPASSSSSPSVSSNHESSVINELVANSKSALADVEVKFSGANVLLKTVSHKIPGQVMKIIAALEDLALEILQVNINTVDETMLNSFTIKIGIECQLSAEELAQQIQQTFC
As for B6, the binding entry is “binds”.

(Values after paper doi:10.1101/2023.08.23.554515.)
